Source: PMC6925144, “A prospective compound screening contest identified broader inhibitors for Sirtuin 1” (Scientific Reports, 2019)
Whole data set: some 3,200 compounds, median “TSA(without NAD+) / Primary screening (TSA) / delta Tm (K)” near -0.07, cut for the highest 2% near 0.37. Some of the results follow.

Chains of the proteins cited; added tags and fusions are not shown. Residues count along the entry.
UniProt Q96EB6, 2-747 limits assumed: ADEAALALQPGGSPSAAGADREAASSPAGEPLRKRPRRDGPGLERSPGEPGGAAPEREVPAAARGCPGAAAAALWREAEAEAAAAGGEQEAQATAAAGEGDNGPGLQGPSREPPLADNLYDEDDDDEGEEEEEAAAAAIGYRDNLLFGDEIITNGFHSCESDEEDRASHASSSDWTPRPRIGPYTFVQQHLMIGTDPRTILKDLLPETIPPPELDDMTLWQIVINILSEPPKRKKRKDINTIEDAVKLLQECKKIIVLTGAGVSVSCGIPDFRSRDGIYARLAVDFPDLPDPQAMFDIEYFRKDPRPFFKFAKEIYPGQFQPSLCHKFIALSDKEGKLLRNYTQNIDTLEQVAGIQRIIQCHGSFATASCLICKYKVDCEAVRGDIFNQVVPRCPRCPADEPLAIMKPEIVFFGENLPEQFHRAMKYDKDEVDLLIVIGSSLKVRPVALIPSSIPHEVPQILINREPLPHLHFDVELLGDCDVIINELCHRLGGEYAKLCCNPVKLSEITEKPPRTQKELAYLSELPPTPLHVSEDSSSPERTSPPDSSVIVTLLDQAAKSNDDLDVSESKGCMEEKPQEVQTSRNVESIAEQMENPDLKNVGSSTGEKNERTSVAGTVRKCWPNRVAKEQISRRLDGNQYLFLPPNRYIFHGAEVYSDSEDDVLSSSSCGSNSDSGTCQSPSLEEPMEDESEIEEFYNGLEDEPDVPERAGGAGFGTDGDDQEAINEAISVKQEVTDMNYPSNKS

target: NAD-dependent deacetylase Sirtuin 1 (human, UniProt Q96EB6); assay: primary screen, delta tm; set-up: single well (n = 1); conditions: 10 µM
Description: A total of 3,192 compounds extracted from the proposed lists were first screened by thermal shift assay (TSA), which determined a melting temperature shift (ΔTm) of Sirtuin 1 upon the addition of a test compound at a concentration of 10 µM (n = 1) with primary hit criteria of ΔTm > 0.45 K or ΔTm < −1.5 K. Primary hits (48 compounds) were retested in the same assay at three concentrations (5, 10, 20 µM, n = 4) for hit confirmation and for dose-dependency check. Secondary hits (41 compounds) were checked their selectivity for Sirtuin 1 based on counterscreening on unrelated protein targets (bovine carbonic anhydrase (CA) and recombinant SH2 domain of hABL1 kinase (ABL1)) at three different concentrations (5, 10, 20 µM, n = 4), which yielded 38 hit compounds, hereafter referred to as TSA hits. The TSA screening above was conducted in the absence of NAD+.

| SMILES | TSA(without NAD+) / Primary screening (TSA) / delta Tm (K) |
| --- | --- |
| CN(Cc1nc2ccccc2c(=O)[nH]1)C(=O)c1ccc(COc2ccccc2C#N)o1 | -0.05 |
| Cn1ncc2c(N3CCN(C(=O)C4CC(=O)N(C5CCCC5)C4)CC3)ncnc21 (stereo not shown) | -0.18 |
| Cc1ccc(C(=O)N2CC3(CCCC3)c3ccccc32)c(=O)[nH]1 | -0.17 |
| Cc1cc(N2CCN(c3ncccc3C(N)=O)CC2)nc(C2CC2)n1 | -0.28 |
| NC(=O)C1Cc2ccccc2CN1C(=O)Cc1ccc2c(c1)CCCC2 (stereo not shown) | -0.23 |
| Cc1nc(N2CCC(C(N)=O)CC2)c2c(CC(C)C)csc2n1 | 0.03 |
| Cc1ccc(O)c(C(=O)NC2CCCNC2=O)c1 (stereo not shown) | -0.24 |
| Cc1[nH]c2ccc(Br)cc2c1CC(=O)N1CCC(C(N)=O)CC1 | -0.02 |
| Cc1nn(-c2ccccc2)c2sc(C(=O)NCc3cccc(NC(=O)C4CC4)c3)cc12 | -0.02 |
| CC(NCc1cccc2c1OCO2)c1ccc2c(c1)NC(=O)CO2 (stereo not shown) | -0.22 |
| CCC(O)CCN (stereo not shown) | -0.12 |
| O=C(CN1CCN(Cc2cscn2)CC1)NC(c1ccccc1)C1CC1 (stereo not shown) | -0.22 |
| C=CCOc1cccc(/C=C2\Oc3cc(O)ccc3C2=O)c1 | -0.04 |
| O=C(COC(=O)C12CC3CC(C1)CC(c1ccccc1)(C3)C2)N1CCc2ccccc21 | 0.08 |
| Cc1ccc(NC(=O)CN2CCN(C(=O)c3ccc(-c4ccc(Cl)cc4)o3)CC2)cc1 | 0.08 |
| NC(=O)C1CCN(C(=O)NCc2ccccc2CN2CCOCC2)C1 (stereo not shown) | -0.02 |
| Cc1ccc(C(C)(C)C)cc1S(=O)(=O)Nc1cccc(C(=O)NNC(=O)c2cccc(S(=O)(=O)Nc3cccc(C(F)(F)F)c3)c2)c1 | 1.22 |
| O=c1oc2ccc3ccccc3c2cc1-c1nc(-c2ccc(Br)cc2)cs1 | -0.08 |
| O=C(Nc1cccc(-c2nc(C3CC3)no2)c1)c1cccc(NC(=O)C2CCCCC2)c1 | 0.42 |
| Cc1cnc(C(=O)NC(Cc2ccccc2)C(=O)N2CCCC2)cn1 (stereo not shown) | -0.05 |

Sorted by SMILES length (rising): part of the list above.

| SMILES | TSA(without NAD+) / Primary screening (TSA) / delta Tm (K) |
| --- | --- |
| Cc1cc(N2CCN(c3ncccc3C(N)=O)CC2)nc(C2CC2)n1 | -0.28 |
| Cc1[nH]c2ccc(Br)cc2c1CC(=O)N1CCC(C(N)=O)CC1 | -0.02 |
| Cn1ncc2c(N3CCN(C(=O)C4CC(=O)N(C5CCCC5)C4)CC3)ncnc21 (stereo not shown) | -0.18 |
| Cc1ccc(NC(=O)CN2CCN(C(=O)c3ccc(-c4ccc(Cl)cc4)o3)CC2)cc1 | 0.08 |

Following part

| SMILES | TSA(without NAD+) / Primary screening (TSA) / delta Tm (K) |
| --- | --- |
| Cc1nn(C)c(C)c1Nc1ncnc2ccsc12 | -0.11 |
| CCCCCCCCNC(=O)/C(C#N)=C/c1c[nH]c2ccccc12 | 0.58 |
| O=C(O)c1cncnc1/C=C/c1ccc2ccccc2c1 | -0.12 |
| Cc1sc2nc(CSc3ccccc3)nc(N3CCCC(C(N)=O)C3)c2c1C (stereo not shown) | -0.12 |
| CC(CCc1ccc(O)cc1)NC(=O)C(C)SCc1nc2scc(-c3ccccc3)c2c(=O)[nH]1 (stereo not shown) | -0.02 |
| Cc1ccc(N(C)S(=O)(=O)c2cccc(C(=O)NNC(=O)C(C)Oc3ccc(C#N)cc3)c2)cc1 (stereo not shown) | -0.05 |
| CCN(Cc1ccco1)C(=O)Cc1sc(S)nc1C | -0.08 |
| CC1CCCN(CCN2CCN(c3ccc(F)cc3)CC2)C1 (stereo not shown) | 0.08 |
| Cc1nn(-c2ccccc2)c(Cl)c1CN1CCN(c2ncnc3c2cnn3C)CC1 | -0.12 |
| Fc1cc(CSc2nnc(NCC3CCCO3)s2)c2ncccc2c1 (stereo not shown) | -0.01 |
| Cc1ccc(C(=O)NCC(=O)OC(C)C(=O)Nc2ccc(C(N)=O)cc2)cc1 (stereo not shown) | -0.07 |
| Cc1cccc2c(=O)n(CC(=O)N(C)c3ccc4ccccc4c3)cnc12 | -0.11 |
| O=C(Nc1ccc2nc(N3CCOCC3)sc2c1)C1=COCCO1 | -0.05 |
| CNC(=O)c1ccc(Cl)cc1NC(=O)C1CC(=O)N(c2ccc3c(c2)OCO3)C1 (stereo not shown) | -0.11 |
| Cn1cc(CSc2cccc(F)c2)cn1 | -0.33 |
| O=C(CCc1ccc(Cl)cc1)N1CCN(c2ccnc3cc(Cl)ccc23)CC1 | 0.08 |
| Cc1cc(C(=O)Nc2cc(C(N)=O)ccc2N2CCCCC2)c2ccccc2n1 | -0.02 |
| CC(C)c1ccc(/C=C2/CS(=O)(=O)c3ccccc3C2=O)cc1[N+](=O)[O-] | -0.48 |
| CCN(C(=O)c1cc(C)cc(Br)c1)c1ccncc1 | -0.23 |
| O=c1[nH]c2ccccc2cc1CSc1nccn1Cc1ccccn1 | -0.17 |

| SMILES | TSA(without NAD+) / Primary screening (TSA) / delta Tm (K) |
| --- | --- |
| Cc1nn(CC(=O)N2CCC(N3CCCC3C(N)=O)CC2)cc1-c1ccccc1 (stereo not shown) | -0.22 |
| C=C(Br)CN | -0.11 |
| Cn1ccc(NC(=O)C(Cc2c[nH]c3ccccc23)NC(=O)c2cccs2)n1 (stereo not shown) | -0.13 |
| CC(C)(C)c1noc(CCCC(=O)Nc2cc(C(N)=O)ccc2N2CCCC2)n1 | -0.08 |
| C=CC(C)N (stereo not shown) | -0.08 |
| O=C(Nc1ccc2c3c(cccc13)CC2)c1cnc2sccn2c1=O | -0.17 |
| NC(=O)c1ccc(NC(=O)CNc2cc(Cl)ccc2N2CCOCC2)cc1 | -0.12 |
| CC(C(=O)Nc1ccc(C(N)=O)cc1)N1CCN(c2ccc(O)cc2)CC1 (stereo not shown) | -0.02 |
| CCOC(CNS(=O)(=O)c1ccc(C(N)=O)cc1)(OCC)c1ccccn1 | -0.15 |
| O=C(Cc1ccc(OCc2cccc3cccnc23)cc1)NCCO | -0.15 |
| O=c1oc2ccc3ccccc3c2cc1-c1csc(-c2nc(-c3ccc(Br)cc3)cs2)n1 | -0.12 |
| Cc1cc2occ(CC(=O)N3CCN(S(=O)(=O)c4cc(C(N)=O)n(C)c4)CC3)c2cc1C(C)C | -0.13 |
| NC(=O)c1cc(C2CCCN(c3nccc(-n4cccn4)n3)C2)n[nH]1 (stereo not shown) | -0.18 |
| O=C(NCCCc1nc2ccccc2[nH]1)C(=O)Nc1cccnc1 | -0.03 |
| Cc1cc(CC(=O)NC(CC(C)C)C(=O)Nc2cc[nH]n2)no1 (stereo not shown) | -0.08 |
| COc1cc(NC(=O)C2CCCC2)c(C(=O)OCC(=O)N(Cc2ccccc2)C(C)(C)C)cc1OC | -0.23 |
| O=C(CCc1nc2ccccc2o1)N1CCN(C(c2ccccc2)c2ccccc2)CC1 | 0.02 |
| CC(C(=O)Nc1ccc(C(N)=O)cc1)N(C)Cc1ccccc1N1CCCCC1 (stereo not shown) | -0.08 |
